From PubChem BioAssay AID328 (DTP/NCI, 2004)
The list does not hold the whole screen: it is rich in T/C values a quarter to a half above the control, in often repeated tests (any T/C) and in doses without a T/C. Further doses and runs are listed elsewhere. T/C is the treated group as % of the vehicle group. Some doses have a count of surviving animals in place of a T/C: the source files T/C as zero there, which appears to mark a toxic dose or a test without result, not a measured value. Some doses without a T/C left all or most animals alive at the check, yet need not have been tolerated: the source hardly ever lists a survival T/C far under the control, and the zero likely stands for such cases as well. Survivors were counted at the toxicity check, usually on the fifth day, unless a day is given; later deaths do not show. Schedule codes are those of the source, read here as Q, the interval in days (D) or hours (H), X, the number of doses. Some entries were tested several times; their values stand side by side, smallest first. Where survival is the endpoint, this PubChem deposit counts one and a half times the control or more as active, and values a quarter to a half above the control carry no call in these data; other NCI protocols may use other cut-offs. Some T/C values are followed by the survivors on the day toxicity was checked, most often the fifth; without a count, all were alive then.

Tested on: BDF1 mice, P388 leukemia ip, median survival T/C
Assay: NCI In Vivo Anticancer Drug Screen. Data for tumor model P388 Leukemia (intraperitoneal) in B6D2F1 (BDF1) mice
Conditions: T/C endpoint: median survival time, higher T/C = longer survival
Summary of the method: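 Steps: implant the tumour, treat one group with compound and another with vehicle, record survival, then divide treated by control.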

[1] = dose: 50.0 mg/kg/injection, schedule: Q01DX005 (ip), vehicle: saline with Tween-80
[2] = dose: 200.0 mg/kg/injection, schedule: Q01DX005 (ip), vehicle: saline with Tween-80
[3] = dose: 12.5 mg/kg/injection, schedule: Q01DX009 (ip), vehicle: water
[4] = dose: 100.0 mg/kg/injection, schedule: Q01DX009 (ip), vehicle: saline with Tween-80
[5] = dose: 200.0 mg/kg/injection, schedule: Q01DX009 (ip), vehicle: saline with Tween-80
[6] = dose: 25.0 mg/kg/injection, schedule: Q04DX003 (ip), vehicle: saline with Tween-80
[7] = dose: 100.0 mg/kg/injection, schedule: Q04DX003 (ip), vehicle: saline with Tween-80
[8] = dose: 200.0 mg/kg/injection, schedule: Q04DX003 (ip), vehicle: saline with Tween-80
[9] = dose: 400.0 mg/kg/injection, schedule: Q04DX003 (ip), vehicle: saline with Tween-80
[10] = dose: 50.0 mg/kg/injection, schedule: Q04DX003 (ip), vehicle: saline with Tween-80
[11] = dose: 12.5 mg/kg/injection, schedule: Q04DX003 (ip), vehicle: saline
[12] = dose: 25.0 mg/kg/injection, schedule: Q01DX009 (ip), vehicle: saline
[13] = dose: 50.0 mg/kg/injection, schedule: Q01DX009 (ip), vehicle: saline with Tween-80

`S=P(N1CCOCC1)(N1CC1)N1CC1` was tested, and the T/C (dose: 2.5 mg/kg/injection, schedule: Q01DX010 (ip), vehicle: saline) was 125 % of control, the T/C (dose: 5.0 mg/kg/injection, schedule: Q01DX010 (ip), vehicle: saline) was 136 and 140 % of control and the T/C (dose: 10.0 mg/kg/injection, schedule: Q01DX010 (ip), vehicle: saline) was 130 and 131 % of control. The survivor count (dose: 20.0 mg/kg/injection, schedule: Q01DX010 (ip), vehicle: saline) was 6 of 6.

`O=C(CN1CCCCC1)Nc1nc(-c2ccc(Cl)cc2)cs1` was tested, and the survivor count [1] was 5 of 5 and the survivor count [2] was 5 of 5.

With `N=C1N=C(C(F)(F)F)N=C1c1[nH]c(C(F)(F)F)nc1N` the survivor count [3] was 4 of 6.

`Cc1cc(O)c2cc3c(O)c(O)ccc3cc2c1` was tested, and the T/C (dose: 0.25 mg/kg/injection, schedule: Q01DX010 (ip), vehicle: saline) was 136 % of control, the survivor count (dose: 8.0 mg/kg/injection, schedule: Q01DX010 (ip), vehicle: saline) was 3 of 6 and the survivor count (dose: 16.0 mg/kg/injection, schedule: Q01DX010 (ip), vehicle: saline) was 3 of 6. The survivor count (dose: 62.5 micrograms/kg/injection, schedule: Q01DX010 (ip), vehicle: saline) was 5 of 6.

`COC(=O)CCCCCCCCC(C)c1ccccc1` (stereo unspecified) was tested, and the T/C [4] was 125 % of control, the T/C [5] was 130 % of control and the T/C (dose: 400.0 mg/kg/injection, schedule: Q01DX009 (ip), vehicle: saline with Tween-80) was 130 % of control.

With `CCOC(=O)CN1C(=O)S/C(=C/c2ccc([N+](=O)[O-])o2)C1=O` the T/C (dose: 400.0 mg/kg/injection, schedule: Q04DX002 (ip), vehicle: saline with Tween-80) was 131 % of control [5 of 6 alive].

In the case of `c1cncc(-c2ncnc3c2Cc2ccccc2-3)c1`, the survivor count (dose: 300.0 mg/kg/injection, schedule: Q01DX009 (ip), vehicle: Klucel (hydroxypropylcellulose) (HPC)) was 1 of 6.

For `CS(=O)(=O)OCCN(CCOS(C)(=O)=O)c1ccccc1`, the T/C [6] was 145 % of control, the T/C (dose: 25.0 mg/kg/injection, schedule: Q04DX003 (ip), vehicle: saline) was 136 % of control and the T/C (dose: 37.5 mg/kg/injection, schedule: Q04DX003 (ip), vehicle: saline) was 145 % of control. The survivor count [7] was 6 of 6, the survivor count [8] was 5 of 6 and the survivor count [9] was 0 of 6.

For `COc1ccc(-c2cc(=O)c3c(O)c(OC)c(O)cc3o2)cc1`, the survivor count (dose: 40.0 mg/kg/injection, schedule: Q01DX010 (ip), vehicle: carboxymethylcellulose (CMC)) was 4 of 4.

With `C=CC[n+]1ccccc1C(c1ccccc1)c1ccccc1` the survivor count (dose: 25.0 mg/kg/injection, schedule: Q01DX009 (ip), vehicle: saline with Tween-80) was 3 of 6, the survivor count [6] was 6 of 6 and the survivor count [10] was 0 of 6.

In the case of `COc1cccc(CCCC(=O)O)c1`, the survivor count (dose: 100.0 mg/kg/injection, schedule: Q04DX003 (ip), vehicle: Klucel (hydroxypropylcellulose) (HPC)) was 6 of 6.

In the case of `CC[N+](C)(CC)CCC[n+]1c(-c2ccccc2)c2cc(N)ccc2c2ccc(N)cc21`, the survivor count (dose: 6.0 mg/kg/injection, schedule: Q01DX009 (ip), vehicle: saline) was 3 of 6 and the survivor count [11] was 2 of 6.

`CC1CN1P(=O)(N1CCCC1)N1CC1C` (stereo unspecified) was tested, and the T/C (dose: 4.0 mg/kg/injection, schedule: Q01DX009 (ip), vehicle: saline) was 135 % of control, the T/C (dose: 8.0 mg/kg/injection, schedule: Q01DX009 (ip), vehicle: saline) was 138 % of control and the T/C (dose: 11.0 mg/kg/injection, schedule: Q01DX009 (ip), vehicle: saline) was 137 % of control. The T/C (dose: 16.0 mg/kg/injection, schedule: Q01DX009 (ip), vehicle: saline) was 143 % of control, the T/C (dose: 16.5 mg/kg/injection, schedule: Q01DX009 (ip), vehicle: saline) was 134 % of control and the survivor count (dose: 128.0 mg/kg/injection, schedule: Q01DX009 (ip), vehicle: saline) was 6 of 6. For the same compound, the survivor count (dose: 200.0 mg/kg/injection, schedule: Q04DX003 (ip), vehicle: saline) was 6 of 6.

For `CSc1ccc2c(c1)C(N1CCN(C)CC1)Cc1ccccc1S2` (stereo unspecified), the T/C [11] was 132 % of control.

For `O=C(O[Si](Cc1ccccc1)(Cc1ccccc1)Cc1ccccc1)N(CCCl)CCCl`, the survivor count [7] was 6 of 6, the survivor count [8] was 4 of 6 and the survivor count [9] was 0 of 6.

In the case of `COC(=O)C1C(O)CCC2CN3CCc4c([nH]c5ccccc45)C3CC21` (stereo unspecified), the T/C [5] was 140 % of control [4 of 6 alive].

`COc1ccc(Cc2c3cc(OC)c(OC)cc3cc[n+]2C)cc1OC` was tested, and the survivor count [10] was 6 of 6, the survivor count [4] was 0 of 6 and the survivor count [8] was 1 of 6.

`CC#CCOCC1CN(c2ccccc2)C(=O)O1` (stereo unspecified) was tested, and the survivor count [4] was 6 of 6.

With `C/C(=C\Cl)CO` the survivor count (dose: 335.0 mg/kg/injection, schedule: Q01DX009 (ip), vehicle: alcohol) was 2 of 6.

With `N#CC(Br)(Br)C(N)=O` the survivor count (dose: 10.0 mg/kg/injection, schedule: Q01DX009 (ip), vehicle: saline) was 5 of 6 and the survivor count (dose: 20.0 mg/kg/injection, schedule: Q01DX009 (ip), vehicle: saline) was 0 of 6.

`CCCCCCCCCCCC[N+](C)(C)CCC[N+](C)(C)CCCCCCCCCCCC` was tested, and the survivor count [12] was 0 of 6, the survivor count [13] was 1 of 6 and the survivor count [4] was 0 of 6. The survivor count [5] was 0 of 6.

In the case of `CNC(CNC(CO)CC(C)C)Cc1ccc(OCc2ccccc2)cc1` (stereo unspecified), the survivor count (dose: 50.0 mg/kg/injection, schedule: Q01DX009 (ip), vehicle: saline) was 1 of 6 and the survivor count (dose: 75.0 mg/kg/injection, schedule: Q01DX009 (ip), vehicle: saline) was 0 of 6.

With `COC1C(/C=C/C(=O)CCl)OC2OC(C)(C)OC21` (stereo unspecified) the survivor count [1] was 0 of 6, the survivor count (dose: 100.0 mg/kg/injection, schedule: Q01DX005 (ip), vehicle: saline with Tween-80) was 0 of 6 and the survivor count [2] was 0 of 6.

`CCC1CC(O)c2c(O)c3c(c(O)c2C1O)C(=O)c1cccc(O)c1C3=O` (stereo unspecified) (tested in a mixture with another compound) was tested, and the survivor count (dose: 0.5 mg/kg/injection, schedule: Q01DX001 (ip), vehicle: saline) was 1 of 6, the survivor count (dose: 1.0 mg/kg/injection, schedule: Q01DX001 (ip), vehicle: saline) was 3 of 6 and the survivor count (dose: 2.0 mg/kg/injection, schedule: Q01DX001 (ip), vehicle: saline) was 2 of 6. For the same compound, the survivor count (dose: 4.0 mg/kg/injection, schedule: Q01DX001 (ip), vehicle: saline) was 3 of 6 and 5 of 6.

In the case of `COc1cccc2c1C(=O)c1c(O)c3c(c(O)c1C2=O)CC(O)(/C(C)=N/NC(=O)CCCCCCCCC(=O)N/N=C(\C)C1(O)Cc2c(O)c4c(c(O)c2C(OC2CC(N)C(O)C(C)O2)C1)C(=O)c1c(OC)cccc1C4=O)CC3OC1CC(N)C(O)C(C)O1` (stereo unspecified), the T/C [3] was 126 % of control and the survivor count (dose: 50.0 mg/kg/injection, schedule: Q01DX009 (ip), vehicle: water) was 2 of 3.

For `COc1cc(-c2ccc(Nc3ccccc3C(=O)O)c(OC)c2)ccc1N`, the T/C [13] was 127 and 142 % of control and the survivor count [4] was 5 of 6.

`CC(C)(O)C1C2OC(=O)C1C1(O)CC3OC34C(=O)OC2C14C` (stereo unspecified) was tested, and the T/C [10] was 127 % of control.

`O=C1NC2(CCCCC2)C(=O)N1CCN(CCCl)CCCl` was tested, and the survivor count [12] was 2 of 6.

For `O=C(OCCC(OC(=O)c1ccccc1)C(COC(=O)c1ccccc1)OC(=O)c1ccccc1)c1ccccc1` (stereo unspecified), the survivor count (dose: 50.0 mg/kg/injection, schedule: Q01DX009 (ip), vehicle: Klucel (hydroxypropylcellulose) (HPC)) was 6 of 6, the survivor count (dose: 100.0 mg/kg/injection, schedule: Q01DX009 (ip), vehicle: Klucel (hydroxypropylcellulose) (HPC)) was 5 of 6 and the survivor count (dose: 200.0 mg/kg/injection, schedule: Q01DX009 (ip), vehicle: Klucel (hydroxypropylcellulose) (HPC)) was 6 of 6. For the same compound, the survivor count (dose: 400.0 mg/kg/injection, schedule: Q01DX009 (ip), vehicle: Klucel (hydroxypropylcellulose) (HPC)) was 6 of 6.
